Source: the supplement of paper PMC10849652
This is one part of the list.

Protein sequences, listed by entry. Tags and fused reporters are not part of them. Lines headed by an entry give the natural chain unless they say otherwise; changes in a name come on top.
UniProt Q6ZSZ5: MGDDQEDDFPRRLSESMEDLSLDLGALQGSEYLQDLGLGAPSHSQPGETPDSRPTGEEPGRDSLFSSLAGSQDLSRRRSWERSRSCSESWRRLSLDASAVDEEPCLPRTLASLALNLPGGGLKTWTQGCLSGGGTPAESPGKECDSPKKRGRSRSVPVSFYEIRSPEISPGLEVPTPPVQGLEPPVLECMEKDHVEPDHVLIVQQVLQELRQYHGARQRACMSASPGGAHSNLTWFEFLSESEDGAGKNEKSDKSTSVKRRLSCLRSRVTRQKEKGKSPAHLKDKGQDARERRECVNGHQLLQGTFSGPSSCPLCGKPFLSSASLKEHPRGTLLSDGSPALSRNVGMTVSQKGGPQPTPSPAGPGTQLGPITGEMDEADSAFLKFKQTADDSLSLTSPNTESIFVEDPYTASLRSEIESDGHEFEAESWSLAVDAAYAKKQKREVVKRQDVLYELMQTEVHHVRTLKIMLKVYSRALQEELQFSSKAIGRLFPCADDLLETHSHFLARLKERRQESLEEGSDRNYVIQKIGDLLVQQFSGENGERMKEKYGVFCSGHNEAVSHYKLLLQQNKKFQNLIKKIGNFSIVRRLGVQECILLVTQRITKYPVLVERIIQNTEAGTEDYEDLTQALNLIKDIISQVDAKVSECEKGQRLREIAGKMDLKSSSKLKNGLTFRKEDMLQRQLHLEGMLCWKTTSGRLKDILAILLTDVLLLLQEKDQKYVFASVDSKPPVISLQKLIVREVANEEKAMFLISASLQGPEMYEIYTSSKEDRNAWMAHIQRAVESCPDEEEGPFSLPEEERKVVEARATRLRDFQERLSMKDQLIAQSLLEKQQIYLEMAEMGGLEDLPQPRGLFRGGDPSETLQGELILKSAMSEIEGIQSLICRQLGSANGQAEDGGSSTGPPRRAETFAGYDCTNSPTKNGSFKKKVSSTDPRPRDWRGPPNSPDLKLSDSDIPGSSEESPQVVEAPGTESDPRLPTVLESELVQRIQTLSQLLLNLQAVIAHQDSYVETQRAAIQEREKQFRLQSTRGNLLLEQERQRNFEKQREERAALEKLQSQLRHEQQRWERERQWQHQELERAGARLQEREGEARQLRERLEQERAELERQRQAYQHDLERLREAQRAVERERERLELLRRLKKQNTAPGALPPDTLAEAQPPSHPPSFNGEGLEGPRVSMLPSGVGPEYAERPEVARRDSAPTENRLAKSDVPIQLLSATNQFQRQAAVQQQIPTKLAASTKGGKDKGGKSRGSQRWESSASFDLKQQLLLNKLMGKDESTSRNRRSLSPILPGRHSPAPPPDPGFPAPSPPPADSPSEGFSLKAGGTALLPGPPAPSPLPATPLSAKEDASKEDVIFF
UniProt P42331: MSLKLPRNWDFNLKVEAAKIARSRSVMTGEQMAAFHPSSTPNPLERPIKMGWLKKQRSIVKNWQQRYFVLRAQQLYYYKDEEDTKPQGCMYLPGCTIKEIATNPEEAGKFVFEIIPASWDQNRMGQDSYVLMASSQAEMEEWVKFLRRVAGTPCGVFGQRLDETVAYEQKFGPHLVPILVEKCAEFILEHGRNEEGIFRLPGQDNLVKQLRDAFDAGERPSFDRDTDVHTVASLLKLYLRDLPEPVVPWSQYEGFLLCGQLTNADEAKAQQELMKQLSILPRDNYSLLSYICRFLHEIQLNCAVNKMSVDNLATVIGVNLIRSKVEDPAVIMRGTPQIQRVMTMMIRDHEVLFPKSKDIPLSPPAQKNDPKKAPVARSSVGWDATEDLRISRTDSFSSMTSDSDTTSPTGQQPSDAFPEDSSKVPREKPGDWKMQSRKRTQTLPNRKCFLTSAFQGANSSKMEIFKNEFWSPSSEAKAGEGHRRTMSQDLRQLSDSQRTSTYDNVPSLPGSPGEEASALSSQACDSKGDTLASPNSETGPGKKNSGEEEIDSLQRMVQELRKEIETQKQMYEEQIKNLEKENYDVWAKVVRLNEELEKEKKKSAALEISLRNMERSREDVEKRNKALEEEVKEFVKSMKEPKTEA
UniProt P02655: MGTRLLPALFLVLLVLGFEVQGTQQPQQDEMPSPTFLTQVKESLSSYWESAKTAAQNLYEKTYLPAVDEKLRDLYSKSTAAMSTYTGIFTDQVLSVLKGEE
UniProt A6QL64: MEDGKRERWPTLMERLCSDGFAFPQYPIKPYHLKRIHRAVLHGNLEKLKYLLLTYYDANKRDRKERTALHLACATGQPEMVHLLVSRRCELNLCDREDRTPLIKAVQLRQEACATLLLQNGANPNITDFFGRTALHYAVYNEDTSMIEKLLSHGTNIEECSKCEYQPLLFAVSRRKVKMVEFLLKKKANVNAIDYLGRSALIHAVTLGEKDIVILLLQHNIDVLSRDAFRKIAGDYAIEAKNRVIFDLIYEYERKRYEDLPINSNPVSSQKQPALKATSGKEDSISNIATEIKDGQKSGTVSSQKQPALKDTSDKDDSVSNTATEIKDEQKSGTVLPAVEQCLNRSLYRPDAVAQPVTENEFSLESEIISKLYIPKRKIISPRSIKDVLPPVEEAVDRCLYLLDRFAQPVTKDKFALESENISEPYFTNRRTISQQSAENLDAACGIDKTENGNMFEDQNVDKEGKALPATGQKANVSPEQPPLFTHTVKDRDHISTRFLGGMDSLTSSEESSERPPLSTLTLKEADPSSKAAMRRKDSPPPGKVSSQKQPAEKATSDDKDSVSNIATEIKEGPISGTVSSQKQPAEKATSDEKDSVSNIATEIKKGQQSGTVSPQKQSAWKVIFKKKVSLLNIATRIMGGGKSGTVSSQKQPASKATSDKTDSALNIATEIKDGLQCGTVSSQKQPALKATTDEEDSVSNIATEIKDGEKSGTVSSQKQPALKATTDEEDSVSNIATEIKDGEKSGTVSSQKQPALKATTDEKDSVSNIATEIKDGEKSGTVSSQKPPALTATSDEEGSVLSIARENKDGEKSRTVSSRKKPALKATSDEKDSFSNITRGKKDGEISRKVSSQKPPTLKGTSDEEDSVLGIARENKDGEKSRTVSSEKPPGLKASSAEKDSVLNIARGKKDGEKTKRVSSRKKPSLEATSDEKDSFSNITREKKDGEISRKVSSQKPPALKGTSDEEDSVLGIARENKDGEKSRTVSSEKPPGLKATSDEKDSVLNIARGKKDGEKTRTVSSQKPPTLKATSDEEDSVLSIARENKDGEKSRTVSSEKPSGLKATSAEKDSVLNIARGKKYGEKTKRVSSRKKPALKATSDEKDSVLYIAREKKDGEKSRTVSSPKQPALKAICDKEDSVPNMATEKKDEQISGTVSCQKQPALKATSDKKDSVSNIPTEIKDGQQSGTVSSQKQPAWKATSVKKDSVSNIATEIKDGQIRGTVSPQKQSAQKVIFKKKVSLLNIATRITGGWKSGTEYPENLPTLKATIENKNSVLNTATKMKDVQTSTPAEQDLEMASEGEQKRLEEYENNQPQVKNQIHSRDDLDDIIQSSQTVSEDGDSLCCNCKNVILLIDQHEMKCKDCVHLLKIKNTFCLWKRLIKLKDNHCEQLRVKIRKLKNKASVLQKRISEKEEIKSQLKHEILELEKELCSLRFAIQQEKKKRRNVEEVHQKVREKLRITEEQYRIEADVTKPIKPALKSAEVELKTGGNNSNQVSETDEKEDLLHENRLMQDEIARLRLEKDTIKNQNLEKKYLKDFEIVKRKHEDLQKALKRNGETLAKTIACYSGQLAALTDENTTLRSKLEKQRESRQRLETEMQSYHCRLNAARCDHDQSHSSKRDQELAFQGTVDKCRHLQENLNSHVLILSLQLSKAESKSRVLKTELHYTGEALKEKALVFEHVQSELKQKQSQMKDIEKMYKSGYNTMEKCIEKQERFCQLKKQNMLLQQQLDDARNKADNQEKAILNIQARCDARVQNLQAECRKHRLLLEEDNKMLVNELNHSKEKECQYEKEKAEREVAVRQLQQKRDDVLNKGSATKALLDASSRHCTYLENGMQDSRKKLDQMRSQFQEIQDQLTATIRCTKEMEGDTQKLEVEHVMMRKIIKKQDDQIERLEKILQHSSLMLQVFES
UniProt Q9P2G1: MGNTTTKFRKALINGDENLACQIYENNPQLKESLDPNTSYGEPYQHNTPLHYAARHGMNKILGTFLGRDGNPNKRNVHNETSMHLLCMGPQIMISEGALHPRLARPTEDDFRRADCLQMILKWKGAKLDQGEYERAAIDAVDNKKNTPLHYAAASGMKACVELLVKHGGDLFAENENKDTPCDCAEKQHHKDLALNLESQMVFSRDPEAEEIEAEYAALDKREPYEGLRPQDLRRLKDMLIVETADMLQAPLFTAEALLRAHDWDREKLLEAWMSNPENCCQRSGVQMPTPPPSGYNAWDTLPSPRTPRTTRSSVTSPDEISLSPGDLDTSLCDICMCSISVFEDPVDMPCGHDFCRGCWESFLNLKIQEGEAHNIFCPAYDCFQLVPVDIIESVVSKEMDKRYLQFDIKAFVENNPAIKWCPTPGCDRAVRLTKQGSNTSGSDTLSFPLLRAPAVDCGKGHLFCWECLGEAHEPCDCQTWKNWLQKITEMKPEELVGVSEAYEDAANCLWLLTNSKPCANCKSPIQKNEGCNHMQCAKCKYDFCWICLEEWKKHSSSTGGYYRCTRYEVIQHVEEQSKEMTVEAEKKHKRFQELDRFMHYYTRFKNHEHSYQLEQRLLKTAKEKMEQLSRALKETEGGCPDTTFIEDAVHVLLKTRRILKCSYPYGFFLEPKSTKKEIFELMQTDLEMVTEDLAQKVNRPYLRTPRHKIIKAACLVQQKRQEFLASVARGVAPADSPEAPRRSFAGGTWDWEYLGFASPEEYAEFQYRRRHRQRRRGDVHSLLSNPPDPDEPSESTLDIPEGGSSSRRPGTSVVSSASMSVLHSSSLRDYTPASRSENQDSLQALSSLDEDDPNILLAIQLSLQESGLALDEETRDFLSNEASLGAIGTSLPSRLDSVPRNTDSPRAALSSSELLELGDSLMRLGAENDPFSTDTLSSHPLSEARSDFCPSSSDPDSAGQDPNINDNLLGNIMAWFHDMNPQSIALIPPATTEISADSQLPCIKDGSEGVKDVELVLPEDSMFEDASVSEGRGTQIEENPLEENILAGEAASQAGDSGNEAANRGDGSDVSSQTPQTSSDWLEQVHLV
UniProt Q9BZZ5: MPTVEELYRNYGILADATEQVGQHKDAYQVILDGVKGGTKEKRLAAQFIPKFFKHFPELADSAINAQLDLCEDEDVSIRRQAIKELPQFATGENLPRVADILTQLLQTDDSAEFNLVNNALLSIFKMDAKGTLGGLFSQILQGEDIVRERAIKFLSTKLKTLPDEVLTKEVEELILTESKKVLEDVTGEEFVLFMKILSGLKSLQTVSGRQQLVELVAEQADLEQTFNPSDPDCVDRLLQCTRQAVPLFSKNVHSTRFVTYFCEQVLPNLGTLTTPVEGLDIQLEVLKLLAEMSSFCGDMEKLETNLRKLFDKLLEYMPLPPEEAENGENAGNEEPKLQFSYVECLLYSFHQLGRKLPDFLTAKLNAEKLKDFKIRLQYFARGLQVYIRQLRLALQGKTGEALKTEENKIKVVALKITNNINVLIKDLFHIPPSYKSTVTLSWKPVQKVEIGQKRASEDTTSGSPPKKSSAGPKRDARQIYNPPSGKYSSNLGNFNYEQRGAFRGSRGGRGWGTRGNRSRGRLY
UniProt Q8WW43, whole entry, looked up: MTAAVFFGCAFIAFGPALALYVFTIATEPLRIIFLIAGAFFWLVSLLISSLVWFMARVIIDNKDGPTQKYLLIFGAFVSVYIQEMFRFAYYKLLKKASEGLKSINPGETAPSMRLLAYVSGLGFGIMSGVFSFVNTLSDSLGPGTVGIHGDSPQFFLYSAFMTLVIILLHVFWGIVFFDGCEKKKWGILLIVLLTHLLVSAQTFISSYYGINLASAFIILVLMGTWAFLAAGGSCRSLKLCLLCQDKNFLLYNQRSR
UniProt P05090: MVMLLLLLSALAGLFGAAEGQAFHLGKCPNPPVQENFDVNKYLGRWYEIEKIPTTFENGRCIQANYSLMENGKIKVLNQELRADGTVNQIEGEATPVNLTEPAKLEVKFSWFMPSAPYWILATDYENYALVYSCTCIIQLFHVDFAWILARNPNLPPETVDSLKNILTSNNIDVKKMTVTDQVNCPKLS
UniProt P02656: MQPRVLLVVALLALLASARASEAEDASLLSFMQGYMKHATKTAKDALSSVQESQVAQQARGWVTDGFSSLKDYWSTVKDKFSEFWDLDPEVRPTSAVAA
UniProt P53367: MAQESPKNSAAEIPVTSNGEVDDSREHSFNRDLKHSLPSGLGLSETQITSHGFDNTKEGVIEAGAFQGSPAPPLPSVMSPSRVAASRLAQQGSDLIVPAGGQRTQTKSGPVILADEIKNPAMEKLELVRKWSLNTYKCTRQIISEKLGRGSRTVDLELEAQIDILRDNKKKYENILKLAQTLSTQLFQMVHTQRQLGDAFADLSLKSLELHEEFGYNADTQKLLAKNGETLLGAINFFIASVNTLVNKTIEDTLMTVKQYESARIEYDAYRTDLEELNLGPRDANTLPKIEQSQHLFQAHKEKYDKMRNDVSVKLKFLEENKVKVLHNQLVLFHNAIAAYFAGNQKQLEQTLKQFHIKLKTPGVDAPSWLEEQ

Legend:
Test in all cases: log2 fold change, soluble protein after heating vs DMSO (PISA); higher = thermal stabilisation; K562 cells, 10 uM, 30 min; active = over 0.2 and 3.5 SD of the protein, either way, in both replicates (recomputed)
filanesib = compound: CON(C)C(=O)N1N=C(c2cc(F)ccc2F)S[C@@]1(CCCN)c1ccccc1 [filanesib]
Method in brief: (§1)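 For each measurement, 10 μM compound was applied for 30 min to K562 cells at 2×10^6 cells/mL. Aliquots were heated for 3 min across 48°C-58°C, pooled, and extracted in PBS with 0.5% NP-40 at 4°C; the supernatant after 21,000xg for 90 min was soluble protein. This was quantified by TMTpro 16plex LC-MS/MS with channel sums equalised, and thermal stability was reported relative to control samples from duplicates, on a log2 fold-change scale.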

zotarolimus = compound: CO[C@H]1C[C@@H]2CC[C@@H](C)[C@@](O)(O2)C(=O)C(=O)N2CCCC[C@H]2C(=O)O[C@H]([C@H](C)C[C@@H]2CC[C@H](n3cnnn3)[C@H](OC)C2)CC(=O)[C@H](C)/C=C(\C)[C@@H](O)[C@@H](OC)C(=O)[C@H](C)C[C@H](C)/C=C/C=C/C=C/1C [zotarolimus]
Method in brief: as §1

idasanutlin = compound: COc1cc(C(=O)O)ccc1NC(=O)[C@@H]1N[C@@H](CC(C)(C)C)[C@](C#N)(c2ccc(Cl)cc2F)[C@H]1c1cccc(Cl)c1F [idasanutlin]
Method in brief: as §1

alisertib = compound: COc1cc(Nc2ncc3c(n2)-c2ccc(Cl)cc2C(c2c(F)cccc2OC)=NC3)ccc1C(=O)O [alisertib]
Method in brief: as §1

[1] = compound: COc1cc2nc(-c3cc(F)ccc3O)nc(N[C@@H]3CNC[C@H]3C(C)(C)O)c2cc1OC
Method in brief: as §1

gefitinib = compound: COc1cc2ncnc(Nc3ccc(F)c(Cl)c3)c2cc1OCCCN1CCOCC1 [gefitinib]
Method in brief: as §1

[2] = compound: COc1cccc2cc(-c3nc([C@H]4CC[C@H](C(=O)O)CC4)n4ncnc(N)c34)[nH]c12
Method in brief: as §1

lapatinib = compound: CS(=O)(=O)CCNCc1ccc(-c2ccc3ncnc(Nc4ccc(OCc5cccc(F)c5)c(Cl)c4)c3c2)o1 [lapatinib]
Method in brief: as §1

pictilisib = compound: CS(=O)(=O)N1CCN(Cc2cc3nc(-c4cccc5[nH]ncc45)nc(N4CCOCC4)c3s2)CC1 [pictilisib]
Method in brief: as §1

[3] = compound: COC1=CC=C(C=C1)CN2C=CC3=C2C=C(C=C3)C(=O)NO
Method in brief: as §1

Measured: log2 fold change

ARHGAP4 isoform 2 (UniProt P98171)
inactive: filanesib 0.027 | zotarolimus -0.012 | idasanutlin 0.104 | alisertib 0.166 | [1] 0.067 | gefitinib -0.211 | [2] 0.028 | lapatinib 0.051

ARHGEF18 (UniProt Q6ZSZ5)
inactive: filanesib 0.05 | zotarolimus -0.014 | idasanutlin -0.212 | alisertib -0.097 | [1] -0.001 | gefitinib 0.004 | [2] -0.086 | lapatinib 0.048 | pictilisib 0.136

AP1G2 (UniProt O75843)
inactive: zotarolimus -0.436 | [1] -0.146 | lapatinib -0.02

ARID4B (UniProt Q4LE39)
inactive: alisertib -0.101 | [2] -0.167

ANKLE2 (UniProt Q86XL3)
inactive: [3] 0.026 | [1] -0.067 | lapatinib 0.072

APOL2 (UniProt J3KQL8)
inactive: filanesib -0.004 | zotarolimus -0.055 | idasanutlin 0.02 | alisertib -0.016 | [1] 0.048 | gefitinib 0.029 | [2] -0.034 | lapatinib -0.048 | pictilisib -0.013

ANLN (UniProt Q9NQW6)
inactive: [3] 0.014 | filanesib 0.041 | alisertib 0.132 | [1] 0.18 | gefitinib 0.089 | [2] 0.117 | lapatinib 0.13 | pictilisib 0.138

APPBP2 (UniProt Q92624)
inactive: [3] -0.156 | zotarolimus -0.008 | [1] -0.216 | gefitinib 0.004 | lapatinib 0.112 | pictilisib 0.047

ARHGAP25 isoform 4 (UniProt P42331)
inactive: zotarolimus -0.077 | idasanutlin -0.123 | alisertib -0.068 | gefitinib 0.08 | [2] -0.11 | pictilisib 0.085

ANKRD46 (UniProt Q86W74)
inactive: filanesib 0.001 | zotarolimus 0.031 | idasanutlin -0.149 | alisertib 0.004 | [1] -0.008 | gefitinib -0.06 | [2] 0.098 | lapatinib -0.03 | pictilisib -0.105

APP (UniProt P05067)
inactive: filanesib 0.147 | alisertib 0.028 | [1] -0.01 | gefitinib 0.07 | [2] -0.03 | lapatinib 0.166

ARHGAP5 (UniProt Q13017)
inactive: zotarolimus -0.401

APOA4 (UniProt P06727)
inactive: idasanutlin 0.124 | alisertib 0.017 | gefitinib -0.052 | [2] 0.032

ANKRD16 (UniProt Q6P6B7)
inactive: filanesib -0.216 | alisertib -0.223 | [1] -0.01 | [2] -0.016 | lapatinib -0.024

APOL1 isoform 2 (UniProt O14791)
inactive: zotarolimus -0.067 | gefitinib 0.077

APOC2 (UniProt P02655)
inactive: [3] -0.051 | zotarolimus -0.038 | alisertib -0.115 | gefitinib 0.188 | [2] 0.057 | pictilisib 0.31

ANKRD26 (UniProt Q9UPS8)
inactive: filanesib -0.142 | zotarolimus -0.006 | idasanutlin -0.085 | alisertib -0.035 | [1] -0.009 | gefitinib -0.033 | [2] 0.094 | lapatinib -0.002 | pictilisib 0.014

ANKRD36 (UniProt A6QL64)
inactive: filanesib 0.253 | alisertib -0.229 | [2] -0.004 | pictilisib 0.235

ANKH (UniProt Q9HCJ1)
inactive: [3] 0.225 | idasanutlin 0.26 | [1] 0.317 | gefitinib 0.111 | lapatinib -0.377 | pictilisib 0.332

ARHGAP21 (UniProt Q5T5U3)
inactive: filanesib 0.551 | zotarolimus -0.299 | alisertib 0.15 | gefitinib -0.024 | [2] -0.027 | pictilisib 0.067

ANKIB1 (UniProt Q9P2G1)
inactive: gefitinib 0.132

APC (UniProt P25054)
inactive: [3] 0.21 | zotarolimus -0.116 | idasanutlin 0.393

ARHGAP22 isoform 2 (UniProt Q7Z5H3)
inactive: filanesib -0.135 | [1] 0.116 | lapatinib -0.162 | pictilisib 0.095

Taken from the listing (six entries):
ANKRD26 (UniProt Q9UPS8)
inactive: filanesib -0.142 | zotarolimus -0.006 | idasanutlin -0.085 | alisertib -0.035 | [1] -0.009 | gefitinib -0.033 | [2] 0.094 | lapatinib -0.002 | pictilisib 0.014

ANKRD36 (UniProt A6QL64)
inactive: filanesib 0.253 | alisertib -0.229 | [2] -0.004 | pictilisib 0.235

ANKH (UniProt Q9HCJ1)
inactive: [3] 0.225 | idasanutlin 0.26 | [1] 0.317 | gefitinib 0.111 | lapatinib -0.377 | pictilisib 0.332

ARHGAP21 (UniProt Q5T5U3)
inactive: filanesib 0.551 | zotarolimus -0.299 | alisertib 0.15 | gefitinib -0.024 | [2] -0.027 | pictilisib 0.067

ANKIB1 (UniProt Q9P2G1)
inactive: gefitinib 0.132

APC (UniProt P25054)
inactive: [3] 0.21 | zotarolimus -0.116 | idasanutlin 0.393

Next entries follow.

API5 isoform 1 (UniProt Q9BZZ5)
inactive: zotarolimus -0.01 | idasanutlin 0.15 | [1] 0.018 | gefitinib 0.203 | lapatinib 0.324

APH1B (UniProt Q8WW43)
inactive: filanesib -0.061 | idasanutlin -0.058 | pictilisib 0.095

ANKRD11 (UniProt Q6UB99)
inactive: filanesib 0.04 | alisertib 0.093 | gefitinib 0.162 | [2] 0.35

APOBEC3F (UniProt Q8IUX4)
inactive: [3] -0.001 | zotarolimus -0.041 | idasanutlin 0.173 | [1] -0.141 | lapatinib 0.056

APOD (UniProt P05090)
inactive: filanesib -0.092 | zotarolimus -0.083 | idasanutlin 0.365 | alisertib 0.181 | [1] 0.141 | gefitinib 0.513 | [2] 0.013 | lapatinib -0.164

AREG (UniProt P15514)
inactive: [3] 0.178 | idasanutlin -0.153 | [1] -0.094 | lapatinib -0.064

APOBEC3B (UniProt Q9UH17)
inactive: [3] -0.118 | zotarolimus 0.182 | gefitinib -0.051

ARHGAP35 (UniProt Q9NRY4)
inactive: [3] 0.026 | zotarolimus 0.025 | idasanutlin 0.065 | alisertib -0.016 | [1] 0.143 | [2] -0.08 | lapatinib 0.04 | pictilisib -0.085

ANKRD52 (UniProt Q8NB46)
inactive: [3] 0.027 | zotarolimus -0.143 | idasanutlin 0.099 | alisertib -0.128 | gefitinib 0.165 | [2] -0.199

APOC3 (UniProt P02656)
inactive: filanesib 0.241 | zotarolimus 0.347 | idasanutlin -0.013 | alisertib -0.116 | [1] -0.135 | gefitinib 0.04 | [2] -0.226 | lapatinib -0.01

ARFIP1 isoform 2 (UniProt P53367)
inactive: [3] -0.225 | filanesib -0.082 | alisertib -0.17 | [1] -0.013 | gefitinib -0.067 | [2] -0.068 | lapatinib 0.05 | pictilisib -0.154

ANKRD13C (UniProt Q8N6S4)
inactive: zotarolimus 0.175 | idasanutlin 0.139
